Results as given in the supplement of paper PMC6411743.
± gives the standard deviation of the averaged measurements. The entries are a selection whose mix differs from that of the whole data set. Most entries show no effect beyond the scatter of the controls.

Chains of the proteins cited; added tags and fusions are not shown. Lines headed by an entry give the natural chain unless they say otherwise; changes in a name come on top.
UniProt Q92973: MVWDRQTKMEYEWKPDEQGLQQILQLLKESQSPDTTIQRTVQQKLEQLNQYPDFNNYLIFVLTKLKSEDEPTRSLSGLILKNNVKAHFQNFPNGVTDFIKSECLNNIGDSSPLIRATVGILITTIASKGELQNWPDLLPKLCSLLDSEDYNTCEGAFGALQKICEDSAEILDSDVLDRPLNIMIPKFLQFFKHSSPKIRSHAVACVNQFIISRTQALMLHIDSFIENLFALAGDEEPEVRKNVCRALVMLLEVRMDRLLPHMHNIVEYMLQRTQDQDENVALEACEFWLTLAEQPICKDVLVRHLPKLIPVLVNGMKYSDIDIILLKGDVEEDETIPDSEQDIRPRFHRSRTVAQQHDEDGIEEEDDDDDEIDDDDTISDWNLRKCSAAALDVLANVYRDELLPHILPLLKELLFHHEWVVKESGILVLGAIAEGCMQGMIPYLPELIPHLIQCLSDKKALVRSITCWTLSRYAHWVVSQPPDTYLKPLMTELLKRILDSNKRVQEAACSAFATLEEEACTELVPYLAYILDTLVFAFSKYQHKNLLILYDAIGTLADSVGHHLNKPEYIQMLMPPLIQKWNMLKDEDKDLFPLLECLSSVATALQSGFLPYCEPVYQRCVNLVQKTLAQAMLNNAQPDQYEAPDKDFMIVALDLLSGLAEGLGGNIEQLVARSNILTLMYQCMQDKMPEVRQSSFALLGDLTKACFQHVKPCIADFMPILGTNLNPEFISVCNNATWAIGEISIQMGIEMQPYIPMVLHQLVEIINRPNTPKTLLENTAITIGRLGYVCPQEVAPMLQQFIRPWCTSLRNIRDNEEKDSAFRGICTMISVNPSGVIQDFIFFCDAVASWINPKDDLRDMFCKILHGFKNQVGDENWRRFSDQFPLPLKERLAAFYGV
UniProt Q8WWH5: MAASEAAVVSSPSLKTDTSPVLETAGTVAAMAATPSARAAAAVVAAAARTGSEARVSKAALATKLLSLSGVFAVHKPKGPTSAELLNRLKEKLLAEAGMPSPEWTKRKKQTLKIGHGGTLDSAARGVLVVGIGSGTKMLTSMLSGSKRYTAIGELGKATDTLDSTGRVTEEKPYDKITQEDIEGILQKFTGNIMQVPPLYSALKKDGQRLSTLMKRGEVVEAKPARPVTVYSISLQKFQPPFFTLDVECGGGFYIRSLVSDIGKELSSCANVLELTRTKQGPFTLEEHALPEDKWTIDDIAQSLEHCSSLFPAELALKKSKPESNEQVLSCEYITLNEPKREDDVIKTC
UniProt Q92643: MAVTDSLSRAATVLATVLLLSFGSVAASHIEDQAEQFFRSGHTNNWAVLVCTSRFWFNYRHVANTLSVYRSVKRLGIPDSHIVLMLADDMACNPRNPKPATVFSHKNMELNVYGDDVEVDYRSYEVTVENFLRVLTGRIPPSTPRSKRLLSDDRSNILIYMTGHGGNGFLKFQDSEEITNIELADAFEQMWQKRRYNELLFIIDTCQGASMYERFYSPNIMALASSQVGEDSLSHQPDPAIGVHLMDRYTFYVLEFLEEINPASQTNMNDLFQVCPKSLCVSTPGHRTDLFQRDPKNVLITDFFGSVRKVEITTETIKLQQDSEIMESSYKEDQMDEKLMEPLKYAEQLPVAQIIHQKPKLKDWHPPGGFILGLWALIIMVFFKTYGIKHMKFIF
UniProt Q92859: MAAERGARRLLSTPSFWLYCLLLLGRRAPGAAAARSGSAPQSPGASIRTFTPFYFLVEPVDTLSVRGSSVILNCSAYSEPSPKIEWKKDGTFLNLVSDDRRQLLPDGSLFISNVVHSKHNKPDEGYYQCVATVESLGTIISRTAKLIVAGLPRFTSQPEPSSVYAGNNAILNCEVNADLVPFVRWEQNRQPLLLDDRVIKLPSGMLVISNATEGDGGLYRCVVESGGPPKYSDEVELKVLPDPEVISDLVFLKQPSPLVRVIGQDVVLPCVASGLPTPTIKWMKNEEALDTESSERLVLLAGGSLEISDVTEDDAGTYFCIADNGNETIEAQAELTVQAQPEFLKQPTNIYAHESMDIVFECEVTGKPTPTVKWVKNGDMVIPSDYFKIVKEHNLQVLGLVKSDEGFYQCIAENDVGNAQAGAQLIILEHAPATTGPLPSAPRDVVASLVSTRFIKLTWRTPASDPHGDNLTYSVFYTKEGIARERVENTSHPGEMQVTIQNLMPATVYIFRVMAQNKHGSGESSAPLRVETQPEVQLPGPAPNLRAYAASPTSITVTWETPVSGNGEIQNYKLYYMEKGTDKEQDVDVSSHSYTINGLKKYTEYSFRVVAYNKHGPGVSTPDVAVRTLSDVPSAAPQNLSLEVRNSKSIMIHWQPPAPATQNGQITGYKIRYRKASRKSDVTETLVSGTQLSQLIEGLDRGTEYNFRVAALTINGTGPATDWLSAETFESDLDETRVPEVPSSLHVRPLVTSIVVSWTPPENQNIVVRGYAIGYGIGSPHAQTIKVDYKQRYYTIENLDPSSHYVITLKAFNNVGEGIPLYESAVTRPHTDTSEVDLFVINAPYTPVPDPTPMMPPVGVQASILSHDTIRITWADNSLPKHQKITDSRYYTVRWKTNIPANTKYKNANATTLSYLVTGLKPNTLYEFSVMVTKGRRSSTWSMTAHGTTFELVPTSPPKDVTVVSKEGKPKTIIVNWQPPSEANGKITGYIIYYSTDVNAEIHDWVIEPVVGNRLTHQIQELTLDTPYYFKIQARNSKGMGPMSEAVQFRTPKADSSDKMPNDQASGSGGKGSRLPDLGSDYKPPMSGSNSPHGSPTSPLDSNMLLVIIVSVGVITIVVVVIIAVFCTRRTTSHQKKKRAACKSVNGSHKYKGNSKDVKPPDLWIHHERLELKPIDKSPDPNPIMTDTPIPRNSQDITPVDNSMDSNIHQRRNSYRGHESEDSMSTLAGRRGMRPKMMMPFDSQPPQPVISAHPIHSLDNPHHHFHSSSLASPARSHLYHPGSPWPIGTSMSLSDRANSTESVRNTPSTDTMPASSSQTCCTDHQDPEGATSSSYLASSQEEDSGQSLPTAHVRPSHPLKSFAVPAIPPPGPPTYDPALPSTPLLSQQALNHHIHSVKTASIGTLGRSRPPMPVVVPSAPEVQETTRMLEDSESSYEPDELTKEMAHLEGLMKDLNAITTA
UniProt Q8TCJ2: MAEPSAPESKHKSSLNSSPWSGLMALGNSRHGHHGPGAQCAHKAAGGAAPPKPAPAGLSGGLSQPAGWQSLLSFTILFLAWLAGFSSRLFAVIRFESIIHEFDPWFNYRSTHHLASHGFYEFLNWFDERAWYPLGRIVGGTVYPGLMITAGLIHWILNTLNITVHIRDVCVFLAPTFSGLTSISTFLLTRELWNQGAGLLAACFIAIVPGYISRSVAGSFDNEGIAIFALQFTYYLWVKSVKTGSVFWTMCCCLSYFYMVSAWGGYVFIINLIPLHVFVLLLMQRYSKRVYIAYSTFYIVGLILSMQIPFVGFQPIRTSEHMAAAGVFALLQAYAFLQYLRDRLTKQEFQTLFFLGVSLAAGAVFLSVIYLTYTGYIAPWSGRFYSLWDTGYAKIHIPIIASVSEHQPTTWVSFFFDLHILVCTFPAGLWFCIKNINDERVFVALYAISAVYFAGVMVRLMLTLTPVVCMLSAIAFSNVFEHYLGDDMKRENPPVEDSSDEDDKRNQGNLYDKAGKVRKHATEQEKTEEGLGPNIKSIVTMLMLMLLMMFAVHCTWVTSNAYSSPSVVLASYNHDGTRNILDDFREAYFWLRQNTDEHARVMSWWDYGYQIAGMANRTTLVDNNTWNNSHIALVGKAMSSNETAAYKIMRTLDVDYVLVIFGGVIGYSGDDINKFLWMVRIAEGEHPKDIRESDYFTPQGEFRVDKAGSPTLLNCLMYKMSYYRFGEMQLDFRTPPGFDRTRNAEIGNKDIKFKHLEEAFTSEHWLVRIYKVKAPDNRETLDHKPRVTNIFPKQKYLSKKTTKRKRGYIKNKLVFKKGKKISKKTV
UniProt Q92597: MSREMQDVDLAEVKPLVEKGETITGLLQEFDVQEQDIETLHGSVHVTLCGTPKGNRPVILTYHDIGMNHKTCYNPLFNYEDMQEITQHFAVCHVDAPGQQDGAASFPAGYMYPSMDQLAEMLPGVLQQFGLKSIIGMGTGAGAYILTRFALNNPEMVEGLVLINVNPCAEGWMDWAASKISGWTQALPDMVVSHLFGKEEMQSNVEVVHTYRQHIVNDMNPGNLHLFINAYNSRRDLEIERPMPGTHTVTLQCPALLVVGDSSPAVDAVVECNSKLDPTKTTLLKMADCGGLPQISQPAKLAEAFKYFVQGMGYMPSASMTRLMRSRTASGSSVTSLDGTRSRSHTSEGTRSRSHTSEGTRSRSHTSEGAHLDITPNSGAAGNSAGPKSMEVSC
UniProt Q8WUM4: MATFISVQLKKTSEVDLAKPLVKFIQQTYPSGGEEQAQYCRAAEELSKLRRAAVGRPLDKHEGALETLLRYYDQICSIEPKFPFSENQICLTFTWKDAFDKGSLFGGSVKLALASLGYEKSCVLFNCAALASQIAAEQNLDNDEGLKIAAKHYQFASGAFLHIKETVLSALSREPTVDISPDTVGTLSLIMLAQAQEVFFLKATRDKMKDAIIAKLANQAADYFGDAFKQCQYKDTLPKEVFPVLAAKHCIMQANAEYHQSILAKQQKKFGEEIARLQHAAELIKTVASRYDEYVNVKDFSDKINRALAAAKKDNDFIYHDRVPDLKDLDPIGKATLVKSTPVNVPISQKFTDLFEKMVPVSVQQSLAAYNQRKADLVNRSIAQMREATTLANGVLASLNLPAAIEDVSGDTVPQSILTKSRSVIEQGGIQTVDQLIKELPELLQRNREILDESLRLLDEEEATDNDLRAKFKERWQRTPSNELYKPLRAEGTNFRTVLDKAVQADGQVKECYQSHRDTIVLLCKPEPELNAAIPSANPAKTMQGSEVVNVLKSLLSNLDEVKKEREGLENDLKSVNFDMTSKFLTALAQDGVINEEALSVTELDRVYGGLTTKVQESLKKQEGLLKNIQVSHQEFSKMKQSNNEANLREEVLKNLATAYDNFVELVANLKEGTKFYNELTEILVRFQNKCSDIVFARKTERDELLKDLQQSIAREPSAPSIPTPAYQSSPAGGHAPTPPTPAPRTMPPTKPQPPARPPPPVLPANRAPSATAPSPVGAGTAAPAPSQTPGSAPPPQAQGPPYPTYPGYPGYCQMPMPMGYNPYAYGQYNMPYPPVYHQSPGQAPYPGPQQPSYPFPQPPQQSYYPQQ
UniProt Q92878: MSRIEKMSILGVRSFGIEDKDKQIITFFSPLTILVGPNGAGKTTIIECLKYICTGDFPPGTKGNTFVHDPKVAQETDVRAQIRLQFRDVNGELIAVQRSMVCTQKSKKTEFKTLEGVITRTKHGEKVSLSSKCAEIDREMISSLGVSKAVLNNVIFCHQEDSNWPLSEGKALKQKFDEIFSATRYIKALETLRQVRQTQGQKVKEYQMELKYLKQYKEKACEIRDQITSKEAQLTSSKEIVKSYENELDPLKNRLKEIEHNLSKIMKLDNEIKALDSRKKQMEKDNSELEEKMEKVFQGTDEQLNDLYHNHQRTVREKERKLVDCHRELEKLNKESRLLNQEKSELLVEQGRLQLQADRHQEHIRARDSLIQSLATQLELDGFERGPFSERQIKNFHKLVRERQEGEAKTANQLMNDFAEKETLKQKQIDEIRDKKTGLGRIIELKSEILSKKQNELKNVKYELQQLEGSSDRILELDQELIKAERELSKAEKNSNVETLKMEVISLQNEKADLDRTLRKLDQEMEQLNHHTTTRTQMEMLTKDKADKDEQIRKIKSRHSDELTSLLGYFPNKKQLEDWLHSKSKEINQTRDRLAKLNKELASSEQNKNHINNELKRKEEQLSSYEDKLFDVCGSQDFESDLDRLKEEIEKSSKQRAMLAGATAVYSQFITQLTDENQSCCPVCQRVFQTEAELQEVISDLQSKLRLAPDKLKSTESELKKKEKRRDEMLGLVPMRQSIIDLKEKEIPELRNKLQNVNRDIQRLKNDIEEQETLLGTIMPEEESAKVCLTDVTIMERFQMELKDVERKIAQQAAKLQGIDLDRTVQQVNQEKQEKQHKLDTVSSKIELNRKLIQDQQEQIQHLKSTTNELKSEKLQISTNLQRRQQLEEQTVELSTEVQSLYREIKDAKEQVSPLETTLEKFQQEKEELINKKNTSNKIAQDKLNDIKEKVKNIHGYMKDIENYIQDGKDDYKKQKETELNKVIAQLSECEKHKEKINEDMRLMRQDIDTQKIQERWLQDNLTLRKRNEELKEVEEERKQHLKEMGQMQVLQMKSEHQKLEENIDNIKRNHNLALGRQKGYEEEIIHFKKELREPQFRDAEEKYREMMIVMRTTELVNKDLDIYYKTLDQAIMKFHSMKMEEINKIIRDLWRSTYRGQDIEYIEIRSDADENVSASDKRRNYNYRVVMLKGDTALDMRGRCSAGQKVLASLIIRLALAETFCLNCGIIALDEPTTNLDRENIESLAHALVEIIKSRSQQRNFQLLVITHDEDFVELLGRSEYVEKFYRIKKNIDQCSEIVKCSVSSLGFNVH

Compound: Nc1ncnc2c1ncn2[C@@H]1O[C@H](COP(=O)(O)OP(=O)(O)OP(=O)(O)O)[C@@H](O)[C@H]1O [adenosine triphosphate]
Assay: NP40-soluble protein abundance relative to vehicle (solubility fold change) (ratio); higher = more soluble protein in presence of ATP
In short: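 Eight concentrations, 0.1 to 10 mM, were tested on Jurkat crude lysate for 10 min at room temperature and then 3 min at 37 °C, in three independent experiments. The lysate was solubilised with 0.8% NP40 and benzonase, ultracentrifuged, and the supernatant TMT-labelled for LC-MS/MS. Each value is the fold change against the detergent-processed vehicle in its own replicate, from vsn-normalised intensities.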

Row | Target | NP40-soluble protein abundance (concentration: 0.1mM) | NP40-soluble protein abundance (concentration: 0.5mM)
1 | JADE3 (UniProt Q92613) | 1.05 ± 0.013 | 1.139 ± 0.0024
2 | STYX (UniProt Q8WUJ0) | 1.01 ± 0.079 | 1.11 ± 0.12
3 | UniProt Q92890 and related entries | 1.02 ± 0.045 | 1.01 ± 0.033
4 | NOC3L (UniProt Q8WTT2) | 1.02 ± 0.056 | 1.07 ± 0.073
5 | GEMIN6 (UniProt Q8WXD5) | 0.97 ± 0.12 | 0.915 ± 0.062
6 | UniProt Q92973 and related entries | 0.987 ± 0.032 | 0.967 ± 0.019
7 | ZNF622 (UniProt Q969S3) | 1.02 ± 0.035 | 1.06 ± 0.051
8 | TRUB1 (UniProt Q8WWH5) | 1.03 ± 0.087 | 0.998 ± 0.023
9 | PIGK (UniProt Q92643) | 1.06 ± 0.18 | 1.08 ± 0.051
10 | RTF1 (UniProt Q92541) | 0.989 ± 0.011 | 0.968 ± 0.062
11 | CREBBP (UniProt Q92793) | 0.971 ± 0.039 | 1.02 ± 0.037
12 | UniProt Q92859 and related entries | 0.983 ± 0.083 | 0.962 ± 0.032
13 | STT3B (UniProt Q8TCJ2) | 1.01 ± 0.014 | 1.01 ± 0.04
14 | NDRG1 (UniProt Q92597) | 0.96 ± 0.021 | 0.984 ± 0.033
15 | UniProt Q96B23-2 | 0.968 ± 0.026 | 0.889 ± 0.07
16 | UniProt Q93050 and related entries | 1.051 ± 0.0059 | 1.08 ± 0.08
17 | PDCD6IP (UniProt Q8WUM4) | 0.994 ± 0.029 | 1.02 ± 0.039
18 | RNF25 (UniProt Q96BH1) | 1.02 ± 0.058 | 0.996 ± 0.035
19 | BAD (UniProt Q92934) | 0.908 ± 0.1 | 0.88 ± 0.17
20 | UniProt Q92615 | 1.01 ± 0.068 | 1.06 ± 0.052
21 | UniProt Q92878 and related entries | 1.058 ± 0.01 | 1.11 ± 0.056
22 | ARPC1A (UniProt Q92747) | 1.03 ± 0.1 | 1.01 ± 0.038
23 | DTD1 (UniProt Q8TEA8) | 1 ± 0.017 | 0.992 ± 0.027

Quoted at random: 2 records from the list.
Row | Target | NP40-soluble protein abundance (concentration: 0.1mM) | NP40-soluble protein abundance (concentration: 0.5mM)
19 | BAD (UniProt Q92934) | 0.908 ± 0.1 | 0.88 ± 0.17
11 | CREBBP (UniProt Q92793) | 0.971 ± 0.039 | 1.02 ± 0.037
